Reference: patent publication US20260258064A1 (SIRONAX LTD., priority 2023, published 2026)
Structures were worked out from names or drawings and are uncertain.

By UniProt entry, the sequences of proteins in these tests, tags left out. Residues count along the entry.
UniProt Q6SZW1, 50-724 limits assumed: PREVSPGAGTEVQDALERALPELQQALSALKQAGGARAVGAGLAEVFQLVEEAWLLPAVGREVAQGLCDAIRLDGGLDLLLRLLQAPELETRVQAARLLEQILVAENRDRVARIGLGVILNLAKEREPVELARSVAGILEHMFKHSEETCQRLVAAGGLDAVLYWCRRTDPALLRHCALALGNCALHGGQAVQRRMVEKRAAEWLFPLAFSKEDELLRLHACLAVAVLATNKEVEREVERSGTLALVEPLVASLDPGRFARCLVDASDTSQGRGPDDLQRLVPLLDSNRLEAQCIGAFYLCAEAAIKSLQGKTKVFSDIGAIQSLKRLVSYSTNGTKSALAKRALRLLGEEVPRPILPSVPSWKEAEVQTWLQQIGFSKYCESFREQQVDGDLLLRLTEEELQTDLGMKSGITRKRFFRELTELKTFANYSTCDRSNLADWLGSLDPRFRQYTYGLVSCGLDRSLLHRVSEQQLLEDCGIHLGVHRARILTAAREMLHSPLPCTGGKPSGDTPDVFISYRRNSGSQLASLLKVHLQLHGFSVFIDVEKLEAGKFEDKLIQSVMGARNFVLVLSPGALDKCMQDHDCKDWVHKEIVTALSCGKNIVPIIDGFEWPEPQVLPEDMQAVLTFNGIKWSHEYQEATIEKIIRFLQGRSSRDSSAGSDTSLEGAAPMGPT

Target: SARM1 (50-724) (Homo sapiens, UniProt Q6SZW1)
Test: SARM1 (50-724) enzymatic assay (LC-MS/MS)
Conditions: read-out: IC50 (SARM1 inhibitory activity), Purified SARM1 (50-724) 2 nM, NMN as activator, NAD+ as substrate, 1 h at room temperature
Method: An enzymatic assay was performed in a 384-well plate using Dulbecco's phosphate-buffered saline (PBS) as the reaction buffer. Purified SARM1 (50-724) with a final concentration of 2 nM was pre-incubated with a test compound at […] final assay concentration for 15 min at room temperature. The reaction was initiated by adding a mixture of […] nicotinamide mononucleotide (NMN) as activator and […] NAD^+ as substrate. After 1 h of incubation at room temperature, the reaction was terminated with 10 times volume of 70% acetonitrile, and then centrifuged at 3800 rpm for 10 min. The samples were analyzed using LC-MS/MS after diluted to a proper concentration by 10 mM ammonium acetate (pH 9.75).
In Table 2, activity is provided as follows: A: IC50≤100 nM; B: 100 nM<IC50≤500 nM; C: 500 nM<IC50≤1000 nM; D: IC50>1000 nM.

SMILES	IC50 [µM]
CC(c1cc(F)c2[nH]c(-c3nncn3-c3cnccc3C(F)(F)F)nc2c1)c1ccccn1 (centres unmarked)	< 0.1
FC(F)(F)c1ccc2[nH]c(-c3nncn3-c3cc(-c4ncc[nH]4)ncc3Cl)nc2c1	< 0.1
